Measured values as given in the supplement of paper PMC4604168 (melanoma cell lines).
Some of the results follow. Repeats are few or missing, and single values can be far off.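 Imaging used 1,536-well plates; nuclei positive for cleaved PARP by antibody were divided by total DNA-stained nuclei to yield the apoptosis fraction. Doses for screening kept most cells viable, and cell lines differ markedly in resting and induced cleaved-PARP levels.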

Experiments:
Assay in all cases: cleaved PARP positive nuclei fraction relative to DMSO control; melanoma cells; higher = more apoptosis
Conditions in all cases: library dose: low library concentration; 72 h
COLO792 = system: COLO792
COLO800 = system: COLO800
COLO829 = system: COLO829
G361 = system: G361
IPC-298 = system: IPC-298
IST-MEL1 = system: IST-MEL1
LB2518-MEL = system: LB2518-MEL
LOXIMVI = system: LOXIMVI

SMILES	cleaved PARP positive nuclei fraction (COLO792)	cleaved PARP positive nuclei fraction (COLO800)	cleaved PARP positive nuclei fraction (COLO829)	cleaved PARP positive nuclei fraction (G361)	cleaved PARP positive nuclei fraction (IPC-298)	cleaved PARP positive nuclei fraction (IST-MEL1)	cleaved PARP positive nuclei fraction (LB2518-MEL)	cleaved PARP positive nuclei fraction (LOXIMVI)
CN(c1ncccc1CNc1nc(Nc2ccc3c(c2)CC(=O)N3)ncc1C(F)(F)F)S(C)(=O)=O + C/C(O)=C(\C#N)C(=O)Nc1cc(Br)ccc1Br [LFM-A13] (first compound 0.08 µM, partner dose 2 µM)	79.1%	112%	187%	90.9%	182%	75.8%	79.1%	166%
N.N.[Cl][Pt][Cl] [cisplatin] + COC(=O)c1sccc1S(=O)(=O)Nc1ccc(Nc2ccccc2)cc1OC [GSK0660] (first compound 1.6 µM, partner dose 1 µM)	173%	62.5%	141%	41.3%	90.3%	218%	313%	159%
C=C(c1ccc(C(=O)O)cc1)c1cc2c(cc1C)C(C)(C)CCC2(C)C [Bexarotene] + C/C(O)=C(\C#N)C(=O)Nc1cc(Br)ccc1Br [LFM-A13] (first compound 2 µM, partner dose 2 µM)	203%	46.6%	64%	91.1%	88.4%	105%	57.2%	220%
CC[C@]1(O)C[C@H]2CN(CCc3c([nH]c4ccccc34)[C@@](C(=O)OC)(c3cc4c(cc3OC)N(C=O)[C@H]3[C@@](O)(C(=O)OC)[C@H](OC(C)=O)[C@]5(CC)C=CCN6CC[C@]43[C@@H]65)C2)C1 [vincristine] + Cc1cc(SCc2sc(-c3ccc(C(F)(F)F)c(F)c3)nc2C)ccc1OCC(=O)O [GW0742] (first compound 0.0001 µM, partner dose 2 µM)	137%	116%	80.2%	82%	80%	71.8%	49.6%	70.4%
C[C@]12O[C@H](C[C@]1(O)CO)n1c3ccccc3c3c4c(c5c6ccccc6n2c5c31)CNC4=O [Lestaurtinib] + CC(C)CCN1c2nc(Nc3cc(F)c(O)c(F)c3)ncc2N(C)C(=O)C1C [BID1870] (first compound 0.004 µM, partner dose 0.2 µM)	102%	81.7%	90%	69.5%	54.2%	257%	74.7%	187%
C=C(c1ccc(C(=O)O)cc1)c1cc2c(cc1C)C(C)(C)CCC2(C)C [Bexarotene] + Cc1cc(SCc2sc(-c3ccc(C(F)(F)F)c(F)c3)nc2C)ccc1OCC(=O)O [GW0742] (first compound 2 µM, partner dose 2 µM)	195%	82.4%	84.9%	158%	47.4%	99.4%	68.8%	89.4%
O=C(/C=C/c1cccnc1)NCCCCC1CCN(C(=O)c2ccccc2)CC1 + O=C(Oc1ccc([N+](=O)[O-])cc1)N1CCC(C(O)(c2ccc3c(c2)OCO3)c2ccc3c(c2)OCO3)CC1 [JZL184] (first compound 0.01 µM, partner dose 1 µM)	167%	527%	196%	2480%	234%	135%	134%	86.3%
C[C@]12O[C@H](C[C@]1(O)CO)n1c3ccccc3c3c4c(c5c6ccccc6n2c5c31)CNC4=O [Lestaurtinib] + Oc1cc(-c2nc(-c3ccccc3)[nH]c2-c2ccncc2)ccc1Cl [L779450] (first compound 0.004 µM, partner dose 0.2 µM)	115%	65.4%	47.7%	162%	57.3%	146%	153%	231%
Nc1ccn([C@@H]2O[C@H](CO)[C@@H](O)C2(F)F)c(=O)n1 [gemcitabine] + O=C(Oc1ccc([N+](=O)[O-])cc1)N1CCC(C(O)(c2ccc3c(c2)OCO3)c2ccc3c(c2)OCO3)CC1 [JZL184] (first compound 0.0004 µM, partner dose 1 µM)	202%	244%	207%	131%	64.3%	143%	82.8%	122%
N.N.[Cl][Pt][Cl] [cisplatin] + COc1cc(N2CCC(N3CCN(C)CC3)CC2)ccc1Nc1ncc(Cl)c(Nc2ccccc2S(=O)(=O)C(C)C)n1 [NVP-TAE684] (first compound 1.6 µM, partner dose 0.08 µM)	155%	63.9%	129%	79.8%	168%	102%	125%	137%
N.N.[Cl][Pt][Cl] [cisplatin] + COc1ccc(-c2ccc3c(N4CCOCC4)nc(N4C[C@@H](C)O[C@@H](C)C4)nc3n2)cc1CO [KU0063794] (first compound 1.6 µM, partner dose 0.02 µM)	204%	68.8%	120%	153%	101%	212%	63.1%	134%
Cc1cc(Nc2cc(N3CCN(C)CC3)nc(/C=C/c3ccccc3)n2)n[nH]1 + Cc1cc(SCc2sc(-c3ccc(C(F)(F)F)c(F)c3)nc2C)ccc1OCC(=O)O [GW0742] (first compound 0.04 µM, partner dose 2 µM)	47.8%	140%	199%	75.8%	29.9%	84.8%	60.4%	65.8%
Cn1cc(C2=C(c3cn(C4CCN(Cc5ccccn5)CC4)c4ccccc34)C(=O)NC2=O)c2ccccc21 [Enzastaurin] + CCc1ccc(CCOc2ccc(CC3SC(=O)NC3=O)cc2)nc1 [pioglitazone] (first compound 0.8 µM, partner dose 2 µM)	101%	174%	147%	104%	131%	67.6%	258%	27.5%
Cn1cc(C2=C(c3cn(C4CCN(Cc5ccccn5)CC4)c4ccccc34)C(=O)NC2=O)c2ccccc21 [Enzastaurin] + O=S(=O)(c1ccccc1)N(CC(F)(F)F)c1ccc(C(O)(C(F)(F)F)C(F)(F)F)cc1 [T0901317] (first compound 0.8 µM, partner dose 1.4 µM)	72.7%	94.3%	140%	184%	131%	63.2%	96.1%	69.1%
C[C@@H](Oc1cc(-c2cnn(C3CCNCC3)c2)cnc1N)c1c(Cl)ccc(F)c1Cl [Crizotinib] + Cc1cc(SCc2sc(-c3ccc(C(F)(F)F)c(F)c3)nc2C)ccc1OCC(=O)O [GW0742] (first compound 0.2 µM, partner dose 2 µM)	86.9%	113%	131%	172%	62.6%	126%	202%	172%
C=CCNC1=C2C[C@@H](C)C[C@H](OC)[C@H](O)[C@@H](C)/C=C(\C)[C@H](OC(N)=O)[C@@H](OC)/C=C\C=C(/C)C(=O)NC(=CC1=O)C2=O [Tanespimycin] + O=C(Oc1ccc([N+](=O)[O-])cc1)N1CCC(C(O)(c2ccc3c(c2)OCO3)c2ccc3c(c2)OCO3)CC1 [JZL184] (first compound 0.002 µM, partner dose 1 µM)	210%	135%	39.8%	76.7%	139%	118%	58.8%	174%
CC(=O)O[C@@]12CO[C@@H]1C[C@H](O)[C@@]1(C)C(=O)[C@H](O)C3=C(C)[C@@H](OC(=O)[C@H](O)[C@@H](NC(=O)OC(C)(C)C)c4ccccc4)C[C@@](O)([C@@H](OC(=O)c4ccccc4)[C@H]21)C3(C)C [Docetaxel] + O=C(Oc1ccc([N+](=O)[O-])cc1)N1CCC(C(O)(c2ccc3c(c2)OCO3)c2ccc3c(c2)OCO3)CC1 [JZL184] (first compound 0.0001 µM, partner dose 1 µM)	492%	486%	197%	349%	140%	208%	110%	64.7%

A stretch from the list above, for reference:
SMILES	cleaved PARP positive nuclei fraction (COLO792)	cleaved PARP positive nuclei fraction (COLO800)	cleaved PARP positive nuclei fraction (COLO829)	cleaved PARP positive nuclei fraction (G361)	cleaved PARP positive nuclei fraction (IPC-298)	cleaved PARP positive nuclei fraction (IST-MEL1)	cleaved PARP positive nuclei fraction (LB2518-MEL)	cleaved PARP positive nuclei fraction (LOXIMVI)
C[C@]12O[C@H](C[C@]1(O)CO)n1c3ccccc3c3c4c(c5c6ccccc6n2c5c31)CNC4=O [Lestaurtinib] + CC(C)CCN1c2nc(Nc3cc(F)c(O)c(F)c3)ncc2N(C)C(=O)C1C [BID1870] (first compound 0.004 µM, partner dose 0.2 µM)	102%	81.7%	90%	69.5%	54.2%	257%	74.7%	187%
C=C(c1ccc(C(=O)O)cc1)c1cc2c(cc1C)C(C)(C)CCC2(C)C [Bexarotene] + Cc1cc(SCc2sc(-c3ccc(C(F)(F)F)c(F)c3)nc2C)ccc1OCC(=O)O [GW0742] (first compound 2 µM, partner dose 2 µM)	195%	82.4%	84.9%	158%	47.4%	99.4%	68.8%	89.4%

Following part:

SMILES	cleaved PARP positive nuclei fraction (COLO792)	cleaved PARP positive nuclei fraction (COLO800)	cleaved PARP positive nuclei fraction (COLO829)	cleaved PARP positive nuclei fraction (G361)	cleaved PARP positive nuclei fraction (IPC-298)	cleaved PARP positive nuclei fraction (IST-MEL1)	cleaved PARP positive nuclei fraction (LB2518-MEL)	cleaved PARP positive nuclei fraction (LOXIMVI)
O=C(O)c1ccc2c(c1)nc(Nc1cccc(Cl)c1)c1ccncc12 + Cc1cc(SCc2sc(-c3ccc(C(F)(F)F)c(F)c3)nc2C)ccc1OCC(=O)O [GW0742] (first compound 0.4 µM, partner dose 2 µM)	74.6%	48.2%	103%	59.5%	93.7%	96.7%	64.7%	81.5%
Cc1cn(-c2cc(NC(=O)c3ccc(C)c(Nc4nccc(-c5cccnc5)n4)c3)cc(C(F)(F)F)c2)cn1 [nilotinib] + C/C(O)=C(\C#N)C(=O)Nc1cc(Br)ccc1Br [LFM-A13] (first compound 0.2 µM, partner dose 2 µM)	69.8%	81%	24.5%	81%	37.7%	68.4%	71.5%	279%
CCCS(=O)(=O)Nc1ccc(F)c(C(=O)c2c[nH]c3ncc(Cl)cc23)c1F + O=C(Oc1ccc([N+](=O)[O-])cc1)N1CCC(C(O)(c2ccc3c(c2)OCO3)c2ccc3c(c2)OCO3)CC1 [JZL184] (first compound 0.08 µM, partner dose 1 µM)	105%	88%	79.1%	124%	82.4%	120%	67.9%	137%
CNC(=O)c1cc(Oc2ccc(NC(=O)Nc3ccc(Cl)c(C(F)(F)F)c3)cc2)ccn1 [sorafenib] + C/C(O)=C(\C#N)C(=O)Nc1cc(Br)ccc1Br [LFM-A13] (first compound 0.4 µM, partner dose 2 µM)	48.8%	146%	52.7%	128%	89.4%	108%	31.2%	41.3%
Cc1cn(-c2cc(NC(=O)c3ccc(C)c(Nc4nccc(-c5cccnc5)n4)c3)cc(C(F)(F)F)c2)cn1 [nilotinib] + Cc1cc(SCc2sc(-c3ccc(C(F)(F)F)c(F)c3)nc2C)ccc1OCC(=O)O [GW0742] (first compound 0.2 µM, partner dose 2 µM)	116%	81.7%	219%	165%	95.1%	47.4%	130%	157%
Nc1ccn([C@@H]2O[C@H](CO)[C@@H](O)C2(F)F)c(=O)n1 [gemcitabine] + C/C(O)=C(\C#N)C(=O)Nc1cc(Br)ccc1Br [LFM-A13] (first compound 0.0004 µM, partner dose 2 µM)	123%	226%	248%	190%	158%	118%	39.5%	69.1%
C[C@]1(O)C[C@@H](c2nc(-c3ccc4ccc(-c5ccccc5)nc4c3)c3c(N)nccn32)C1 + Cc1cc(SCc2sc(-c3ccc(C(F)(F)F)c(F)c3)nc2C)ccc1OCC(=O)O [GW0742] (first compound 0.4 µM, partner dose 2 µM)	129%	97.8%	172%	102%	105%	37.6%	36.7%	163%
N.N.[Cl][Pt][Cl] [cisplatin] + CC(C)CCN1c2nc(Nc3cc(F)c(O)c(F)c3)ncc2N(C)C(=O)C1C [BID1870] (first compound 1.6 µM, partner dose 0.2 µM)	137%	66.1%	36.9%	107%	180%	70.2%	69%	210%
CS(=O)(=O)CCNCc1ccc(-c2ccc3ncnc(Nc4ccc(OCc5cccc(F)c5)c(Cl)c4)c3c2)o1 [lapatinib] + Cc1cc(SCc2sc(-c3ccc(C(F)(F)F)c(F)c3)nc2C)ccc1OCC(=O)O [GW0742] (first compound 0.8 µM, partner dose 2 µM)	108%	61.4%	86.6%	68.9%	89.7%	56.2%	54.5%	97.9%
CCCCCCCCCCCCCCCCCCOP(=O)([O-])OC1CC[N+](C)(C)CC1 [Perifosine] + C/C(O)=C(\C#N)C(=O)Nc1cc(Br)ccc1Br [LFM-A13] (first compound 0.4 µM, partner dose 2 µM)	117%	65.3%	572%	139%	149%	110%	74.7%	68.7%
C[C@]12O[C@H](C[C@]1(O)CO)n1c3ccccc3c3c4c(c5c6ccccc6n2c5c31)CNC4=O [Lestaurtinib] + COc1ccc2c(c1)CCC1C2CCC2(C)C(NCCCCCCN3C(=O)C=CC3=O)CCC12 [U73122] (first compound 0.004 µM, partner dose 0.4 µM)	113%	118%	113%	158%	180%	57.5%	32.2%	89.3%
Cn1cc(C2=C(c3cn(C4CCN(Cc5ccccn5)CC4)c4ccccc34)C(=O)NC2=O)c2ccccc21 [Enzastaurin] + O=C(Oc1ccc([N+](=O)[O-])cc1)N1CCC(C(O)(c2ccc3c(c2)OCO3)c2ccc3c(c2)OCO3)CC1 [JZL184] (first compound 0.8 µM, partner dose 1 µM)	154%	66.2%	84.4%	157%	91.2%	66.2%	43%	39.6%
Cn1cc(C2=C(c3cn(C4CCN(Cc5ccccn5)CC4)c4ccccc34)C(=O)NC2=O)c2ccccc21 [Enzastaurin] + O=C1NC(=O)/C(=C/c2ccc(-c3ccc(F)cc3O)o2)S1 [AS252424] (first compound 0.8 µM, partner dose 1 µM)	62.4%	57.3%	208%	17.3%	45%	21.3%	35.7%	115%
OCc1c[nH]c2ccccc12 [Indole-3-carbinol] + Cc1cc(SCc2sc(-c3ccc(C(F)(F)F)c(F)c3)nc2C)ccc1OCC(=O)O [GW0742] (first compound 0.8 µM, partner dose 2 µM)	41.4%	51.1%	154%	144%	59.3%	94.2%	70.9%	205%
CCCS(=O)(=O)Nc1ccc(F)c(C(=O)c2c[nH]c3ncc(Cl)cc23)c1F + C/C(O)=C(\C#N)C(=O)Nc1cc(Br)ccc1Br [LFM-A13] (first compound 0.08 µM, partner dose 2 µM)	102%	157%	89.5%	63%	133%	94.3%	66.2%	39.1%
N.N.[Cl][Pt][Cl] [cisplatin] + COc1ccc(COc2ccc(Cc3cnc(N)nc3N)cc2OC)cc1 [GW2580] (first compound 1.6 µM, partner dose 1 µM)	135%	61.1%	97.6%	144%	95.4%	142%	64.6%	78.8%
